Measurements taken from PubChem BioAssay AID588674 (Broad Institute, 2011).
“And” between values parts separate entries of the source, which are not always exact repeats. Equal entries are not always repeated. Among all 360,000 compounds or so, about 1,800 (0.5%) were called active. Inconclusive results, whose numbers are uncertain, are shown with a selection of clear calls.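 How the source made its calls: active means mean inhibition of at least 75% with every replicate also reaching 75%; inconclusive means mean inhibition at least 75% but some replicate below; inactive means mean inhibition below 75%.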

experiment: reduction of Shn3 3'UTR firefly luciferase signal, primary screen, Schnurri-3 inhibitor project, cell-based, Clone20 osteoblasts, set 2 (AID 588674); details: Clone20 osteoblast Shn3 3'UTR firefly luciferase, 24 h; at 12.5 µM; hits give high values;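 further: 0% = median of neutral control wells and 100% = pilot-screen positive control compound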

| Compound | inhibition |
| --- | --- |
| COc1ccc(C(=O)C(CN2CCOCC2)c2ccccc2)cc1 (stereo not drawn) | active: 89.3% |
| Cc1ccc(Oc2ccc(OCC(=O)Nc3ccncc3)cc2)cc1 | inconclusive: 85.2% |
| O=C(O)c1ccc(NC2=C/C(=N/S(=O)(=O)c3ccccc3)c3ccccc3C2=O)cc1 | inconclusive: 90.3% |
| CCC(C)c1ccc(S(=O)(=O)N2CCN(C(=O)c3ccc(Cl)c(S(=O)(=O)N4CCOCC4)c3)CC2)cc1 (stereo not drawn) | active: 89.7% |
| CC1(C)N=C(N)N=C(N)N1c1ccc(CCCCc2ccccc2)cc1 | active: 88.6% |
| CC(C)(C)c1ccc(NC(=O)COc2ccc(-n3ccnc3)cc2)cc1 | inconclusive: 87.5% |
| Cn1nc(C(C)(C)C)cc1C(=O)N1CCCCC1c1cc(C(=O)Nc2cccc3c2CCCC3)no1 (stereo not drawn) | active: 80.9% |
| O=C(N=C1SC2CS(=O)(=O)CC2N1Cc1ccccc1Cl)C1CC1 (stereo not drawn) | inactive: 5.48% |
| COc1ccc(CNC(=O)c2ccc(-n3ccnc3)c3ccoc23)cc1OC | inactive: 15.5% |
| O=C1c2c(O)ccc(O)c2C(=O)c2c(NCCNCCO)ccc(NCCNCCO)c21 | active: 95.3% and active: 92.6% |
| O=C(CN1C(=O)c2ccccc2S1(=O)=O)N1CCc2ccccc21 | inconclusive: 80.8% |
| Cc1csc(CNc2ncnc3ccc(-c4ccc5c(c4)OCO5)cc23)c1 | inactive: -7% |
| Cn1cccc1C(=O)NC(=O)COC(=O)c1ccc(S(C)(=O)=O)c([N+](=O)[O-])c1 | active: 98.2% |
| COC(=O)c1c(C)n(-c2ccc(OC)cc2)c2ccc(O)cc12 | inactive: 16.2% |
| CN1CCN(C(c2ccc(Br)cc2)c2cc(Cl)c3cccnc3c2O)CC1 (stereo not drawn) | inconclusive: 85% |
| CC(C)(C)[C@@H]1COC(=O)[C@@H](NC(=O)OCC2c3ccccc3-c3ccccc32)C/C=C\C[C@@H](CC(=O)NCCO)C(=O)N1 | active: 85.8% |
| COc1ccc(-c2cnc(C(O)c3ccc(CN4CCCCC4)cc3)[nH]2)cc1 (stereo not drawn) | inactive: 16.2% |
| O=c1nc(N/N=C/c2ccccn2)cn[nH]1 | inconclusive: 85.3% |
| CC1CCN(Cc2c(C(=O)N/N=C/c3cc(Br)ccc3O)nnn2-c2nonc2N)CC1 | inconclusive: 85.3% |
| CC[n+]1cc(C)ccc1/C=C/c1ccc(N(C)C)cc1 | inconclusive: 85.3% |
| CCCCCCCCCCCCCCCC[N+](C)(C)Cc1ccc(F)cc1 | inconclusive: 87.4% |
| O=C(OC1CO[C@H]2O[C@@H]1[C@H](OC(=O)c1ccccc1)[C@H]2OC(=O)c1ccccc1)c1ccccc1 (stereo partly drawn) | inactive: -16.2% |
| CCOc1ccc2nc3cc(NCc4ccc(OC)cc4)ccc3c(N)c2c1 | inconclusive: 87.4% |

Gathered by group: those above containing bromine

| Compound | inhibition |
| --- | --- |
| CN1CCN(C(c2ccc(Br)cc2)c2cc(Cl)c3cccnc3c2O)CC1 (stereo not drawn) | inconclusive: 85% |
| CC1CCN(Cc2c(C(=O)N/N=C/c3cc(Br)ccc3O)nnn2-c2nonc2N)CC1 | inconclusive: 85.3% |
